Data on one compound can be found in patent publication US20260021154A1, “HERBAL ANTI-INFAMMATORY COMPOSITION” (CIRA HERBALS LLP, priority 2022, published 2026).

Protein sequences, listed by entry. Tags and fused reporters are not part of them. Residues count along the entry.
UniProt P02769, 25-607: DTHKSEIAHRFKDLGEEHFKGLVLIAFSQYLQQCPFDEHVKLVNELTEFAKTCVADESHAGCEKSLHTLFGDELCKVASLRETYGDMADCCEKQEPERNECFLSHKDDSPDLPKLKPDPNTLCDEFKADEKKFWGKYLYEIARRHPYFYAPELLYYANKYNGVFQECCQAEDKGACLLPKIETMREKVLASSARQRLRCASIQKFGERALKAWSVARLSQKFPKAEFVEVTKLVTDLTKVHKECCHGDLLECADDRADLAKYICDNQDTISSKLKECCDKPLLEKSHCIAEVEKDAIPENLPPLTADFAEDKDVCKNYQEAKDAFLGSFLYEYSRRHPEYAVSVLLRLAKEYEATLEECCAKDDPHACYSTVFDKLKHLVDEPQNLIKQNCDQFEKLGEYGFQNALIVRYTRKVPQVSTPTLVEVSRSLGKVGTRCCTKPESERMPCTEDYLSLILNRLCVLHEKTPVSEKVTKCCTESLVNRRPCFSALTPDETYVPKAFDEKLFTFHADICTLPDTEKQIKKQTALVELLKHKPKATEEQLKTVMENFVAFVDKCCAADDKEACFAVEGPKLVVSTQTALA

Each structure is given as a SMILES string. Read-outs that look alike come from different tables or passages of the source.

The target in the data set is bovine serum albumin (Bos taurus, UniProt P02769). Particulars: for Inhibition of protein denaturation: bovine, 15 min, pH 7.2.

As to `CC(C)(C(=O)O)c1ccc(C(O)CCCN2CCC(C(O)(c3ccccc3)c3ccccc3)CC2)cc1` (stereo not drawn) [Fexofenadine], the “IC50 (50% inhibition of protein denaturation)” value worked out at 16.83 µg. Moreover, the “Inhibition of protein denaturation” value (0.2 µg/mL) is recorded as 4.91%. The “Inhibition of protein denaturation” value (6.4 µg/mL) was determined as 69.75%.
